Assay [1] deals with Ubc9 of mouse fibroblast cells (EJ cell lysates; NIH 3T3 cells) (mouse) (UniProt P63280). The assay can be described thus: HA immunoprecipitation from transfected cells, immunoblot for Ubc9 (FIG. 9B). A general note: In western blotting, separated proteins are transferred to a membrane and probed.
For assay [2] the target is unchanged. The assay can be described thus: HA immunoprecipitation from transfected NIH 3T3 cells, co-immunoprecipitation of Ubc9 (FIG. 9B legend).
Assay [3] shares this target. The assay can be described thus: peptide on AminoLink beads incubated with EJ mouse fibroblast lysate (FIG. 9A legend).
The target is the same in assay [4]. The assay can be described thus: peptide on AminoLink beads incubated with cell lysate, Western blot for Ubc9 (FIG. 9A).

Sequences of proteins named here, by UniProt entry; tags and fusion partners are left off. Residues count along the entry.
UniProt P63280, residues 2-158: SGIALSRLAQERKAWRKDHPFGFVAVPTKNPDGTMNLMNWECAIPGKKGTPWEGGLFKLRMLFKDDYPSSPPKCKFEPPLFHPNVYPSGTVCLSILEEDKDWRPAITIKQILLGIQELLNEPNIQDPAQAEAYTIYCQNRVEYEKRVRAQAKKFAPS

No constants are given. Whether binding was seen depends on the method and setting. For some of these results: In cells and extracts the contact can be indirect. Some binding calls cover weakened binding; strength is not graded here. For some of these results: Tags and fused reporters may be left off the sequences shown.

Regarding SVGAQKDTYTMKEVLFYLGQ (peptide, not shown: small tags and cut ends) [mu9bs peptide expressed in cells with penetratin sequence and HA-tag (pcDNA3)], the binding entry in assay [1] and in assay [2] was “binds” throughout.

Consider SVGAQKDTYTMKEVLFYLGQ [mu9bs peptide (Mdm2 Ubc9 binding site), synthetic peptide corresponding to aa 40-59 of Mdm2], for which the binding entry in assay [3] and in assay [4] was “binds” throughout.

The values above are taken from patent US20020031818A1, “Modification of Mdm2 activity” (priority 2000, published 2002).
